Measurements reported in PubChem BioAssay AID1224830 (NIAID, 2016)

Assay: 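Regulators of TLR4 signalling towards TNF-alpha in macrophage-like cells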 (primary screen)
System: human THP-1 monocytic leukaemia cells, TNF dual-luciferase reporter clone, PMA-differentiated to macrophage-like cells
Knock-down reagent: siRNA pool against human genes, 50 nM
Timing: LPS for 4 h, given about 3 days after siRNA transfection
Treatment: bacterial LPS (TLR4 ligand), 10 ng/ml
Measured: 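TNF firefly reporter luminescence divided by renilla, normalised to the plate median, then turned into a robust z-score for each replicate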
Direction: TNF reporter robust z-score: higher = stronger TNF reporter response to LPS
Active means: 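Each well counts as active if its z-score is over 2.8 or under -1.5; controls are left without a call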
The deposit covers about 18,000 reagents; shown is a part drawn at random. About 2,900 of them (16%) were called active. 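Calls are made per well; low scores hint the gene aids the LPS response, high scores that it dampens it.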 Repeated entries: four replicate wells of each siRNA pool.

gene symbol	TNF reporter robust z-score	outcome
DBI	-0.57	inactive
DBI	-0.21	inactive
DBI	-0.68	inactive
DBI	0.16	inactive
ATP8A2	0.18	inactive
ATP8A2	-0.46	inactive
ATP8A2	1.14	inactive
ATP8A2	0	inactive
KRTAP12-3	-1.24	inactive
KRTAP12-3	0.32	inactive
KRTAP12-3	-0.78	inactive
KRTAP12-3	-0.44	inactive
RNF6	-0.1	inactive
RNF6	0.32	inactive
RNF6	-0.2	inactive
RNF6	2.4	inactive
TMEM134	-0.83	inactive
TMEM134	0.16	inactive
TMEM134	1	inactive
TMEM134	1.33	inactive
TMEM214	1.64	inactive
TMEM214	-0.06	inactive
TMEM214	0.1	inactive
TMEM214	-0.14	inactive
RCVRN	0	inactive
RCVRN	-0.52	inactive
RCVRN	-0.64	inactive
RCVRN	-0.01	inactive
CSNK2A1	-1.48	inactive
CSNK2A1	0.75	inactive
CSNK2A1	-0.97	inactive
CSNK2A1	0.99	inactive
SPP1	1.26	inactive
SPP1	-0.51	inactive
SPP1	-0.63	inactive
SPP1	0.95	inactive
THSD1	-0.74	inactive
THSD1	-0.7	inactive
THSD1	-0.91	inactive
THSD1	-0.84	inactive
ANKMY2	-0.52	inactive
ANKMY2	-0.08	inactive
ANKMY2	-0.49	inactive
ANKMY2	0.7	inactive
WDR25	-1.5	inactive
WDR25	-1.23	inactive
WDR25	-1.17	inactive
WDR25	-1.65	active
BTG3	0.43	inactive
BTG3	4.49	active
BTG3	1.52	inactive
BTG3	3.01	active
MON2	-0.84	inactive
MON2	0.15	inactive
MON2	1.42	inactive
MON2	-0.06	inactive
USP1	0.28	inactive
USP1	-1.16	inactive
USP1	-1.14	inactive
USP1	-0.3	inactive
FUBP1	2.47	inactive
FUBP1	1.55	inactive
FUBP1	0.62	inactive
FUBP1	0.95	inactive
IFNA4	-0.07	inactive
IFNA4	0.94	inactive
IFNA4	1.47	inactive
IFNA4	2.14	inactive
OLFML3	-0.22	inactive
OLFML3	0.73	inactive
OLFML3	-0.09	inactive
OLFML3	-0.74	inactive
CCND2	-1.36	inactive
CCND2	-0.86	inactive
CCND2	-1.29	inactive
CCND2	-0.68	inactive
TRAF5	0.37	inactive
TRAF5	-0.37	inactive
TRAF5	0.22	inactive
TRAF5	-1.22	inactive
ESYT3	-0.83	inactive
ESYT3	-1.01	inactive
ESYT3	-1.11	inactive
ESYT3	-0.66	inactive
TFF3	-0.6	inactive
TFF3	-0.62	inactive
TFF3	-0.9	inactive
TFF3	-0.43	inactive
CUTC	0.5	inactive
CUTC	0.31	inactive
CUTC	0.57	inactive
CUTC	0.56	inactive
LIPJ	1.35	inactive
LIPJ	-0.15	inactive
LIPJ	1.34	inactive
LIPJ	1.09	inactive
DEFB114	-0.91	inactive
DEFB114	-0.53	inactive
DEFB114	-1.67	active
DEFB114	-1.41	inactive
ADI1	0.44	inactive
ADI1	0.6	inactive
ADI1	-0.55	inactive
ADI1	0.48	inactive
LYPD3	-0.9	inactive
LYPD3	0.03	inactive
LYPD3	-0.85	inactive
LYPD3	0.07	inactive
LRP12	1.32	inactive
LRP12	0.83	inactive
LRP12	-0.58	inactive
LRP12	-0.68	inactive

Part of the list above, reformatted:
{"gene symbol": "CCND2", "TNF reporter robust z-score": -1.29, "outcome": "inactive"}
{"gene symbol": "CCND2", "TNF reporter robust z-score": -0.68, "outcome": "inactive"}
{"gene symbol": "TRAF5", "TNF reporter robust z-score": 0.37, "outcome": "inactive"}
{"gene symbol": "TRAF5", "TNF reporter robust z-score": -0.37, "outcome": "inactive"}
{"gene symbol": "TRAF5", "TNF reporter robust z-score": 0.22, "outcome": "inactive"}
{"gene symbol": "TRAF5", "TNF reporter robust z-score": -1.22, "outcome": "inactive"}
{"gene symbol": "ESYT3", "TNF reporter robust z-score": -0.83, "outcome": "inactive"}
